# Measured values from the supplement of paper PMC8728848.
# The list shows a part of the results.
# B1: Wzz (Escherichia coli) (protein)
# chain: MRTWKFPSVRVMMRVENNNVSGQNHDPEQIDLIDLLVQLWRGKMTIIISVIVAIVLAIGYLAVAKEKWTSTAIITQPDVGQIAGYNNAMNVIYGQAAPKVSDLQETLIGRFSSAFSALAETLDNQEEPEKLTIEPSVKNQQLPLTVSYVGQTAEGAQMKLAQYIQQVDDKVNQELEKDLKDNIALGRKNLQDSLRTQEVVAQEQKDLRIRQIQEALQYANQAQVTKPQIQQTGEDITQDTLFLLGSEALESMIKHEATRPLVFSSNYYQTRQNLLDIDNLDVDKLDIHAYLYVMKPTLPIRRDSPKKAITLILAVLLGGMVGAGIVLGRNALRNYNAK
# How the values were obtained:
# Experiment in all cases: glycan array binding signal (z-score within array); higher = stronger binding
# Settings in all cases: glycan notation: IUPAC condensed, linker removed
# [1] = target: Gal(b1-4)GlcNAc(b1-3)Gal(b1-4)GlcNAc(b1-2)[Gal(b1-4)GlcNAc(b1-3)Gal(b1-4)GlcNAc(b1-6)]Man(a1-6)[Gal(b1-4)GlcNAc(b1-3)Gal(b1-4)GlcNAc(b1-2)Man(a1-3)]Man(b1-4)GlcNAc(b1-4)GlcNAc
# Summary of the method: (§1)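 From the Consortium for Functional Glycomics database, 3228 arrays were curated, keeping only those whose protein sequence was available. Binding is given as a within-array Z-score averaged across arrays sharing a protein sequence and across linkers. Negative Z-scores can be read as non-binding.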
# [2] = target: Gal(b1-4)GlcNAc(b1-3)Gal(b1-4)GlcNAc(b1-2)[Gal(b1-4)GlcNAc(b1-3)Gal(b1-4)GlcNAc(b1-6)]Man(a1-6)[Gal(b1-4)GlcNAc(b1-3)Gal(b1-4)GlcNAc(b1-2)Man(a1-3)]Man(b1-4)GlcNAc(b1-4)[Fuc(a1-6)]GlcNAc
# Summary of the method: as §1
# [3] = target: Gal(b1-4)GlcNAc(b1-3)Gal(b1-4)GlcNAc(b1-3)Gal(b1-4)GlcNAc
# Summary of the method: as §1
# [4] = target: Gal(b1-4)GlcNAc(b1-3)Gal(b1-4)GlcNAc(b1-3)Gal(b1-4)GlcNAc(b1-2)Man(a1-3)[Gal(b1-4)GlcNAc(b1-3)Gal(b1-4)GlcNAc(b1-3)Gal(b1-4)GlcNAc(b1-2)Man(a1-6)]Man(b1-4)GlcNAc(b1-4)GlcNAc
# Summary of the method: as §1
# [5] = target: Gal(b1-4)GlcNAc(b1-3)Gal(b1-4)GlcNAc(b1-3)Gal(b1-4)GlcNAc(b1-2)Man(a1-3)[Gal(b1-4)GlcNAc(b1-3)Gal(b1-4)GlcNAc(b1-3)Gal(b1-4)GlcNAc(b1-2)Man(a1-6)]Man(b1-4)GlcNAc(b1-4)[Fuc(a1-6)]GlcNAc
# Summary of the method: as §1
# [6] = target: Gal(b1-4)GlcNAc(b1-3)Gal(b1-4)GlcNAc(b1-3)Gal(b1-4)GlcNAc(b1-2)[Gal(b1-4)GlcNAc(b1-3)Gal(b1-4)GlcNAc(b1-3)Gal(b1-4)GlcNAc(b1-6)]Man(a1-6)[Gal(b1-4)GlcNAc(b1-3)Gal(b1-4)GlcNAc(b1-3)Gal(b1-4)GlcNAc(b1-2)Man(a1-3)]Man(b1-4)GlcNAc(b1-4)[Fuc(a1-6)]GlcNAc
# Summary of the method: as §1
# [7] = target: Gal(b1-4)GlcNAc(b1-3)Gal(b1-4)GlcNAc(b1-3)Gal(b1-4)GlcNAc(b1-3)Gal(b1-4)GlcNAc(b1-2)Man(a1-3)[Gal(b1-4)GlcNAc(b1-3)Gal(b1-4)GlcNAc(b1-3)Gal(b1-4)GlcNAc(b1-3)Gal(b1-4)GlcNAc(b1-2)Man(a1-6)]Man(b1-4)GlcNAc(b1-4)GlcNAc
# Summary of the method: as §1
# [8] = target: Gal(b1-4)GlcNAc(b1-3)Gal(b1-4)GlcNAc(b1-3)Gal(b1-4)GlcNAc(b1-3)Gal(b1-4)GlcNAc(b1-2)Man(a1-3)[Gal(b1-4)GlcNAc(b1-3)Gal(b1-4)GlcNAc(b1-3)Gal(b1-4)GlcNAc(b1-3)Gal(b1-4)GlcNAc(b1-2)Man(a1-6)]Man(b1-4)GlcNAc(b1-4)[Fuc(a1-6)]GlcNAc
# Summary of the method: as §1
# [9] = target: Gal(b1-4)GlcNAc(b1-3)Gal(b1-4)GlcNAc(b1-3)Gal(b1-4)GlcNAc(b1-3)Gal(b1-4)GlcNAc(b1-2)[Gal(b1-4)GlcNAc(b1-3)Gal(b1-4)GlcNAc(b1-3)Gal(b1-4)GlcNAc(b1-3)Gal(b1-4)GlcNAc(b1-6)]Man(a1-6)[Gal(b1-4)GlcNAc(b1-3)Gal(b1-4)GlcNAc(b1-3)Gal(b1-4)GlcNAc(b1-3)Gal(b1-4)GlcNAc(b1-2)Man(a1-3)]Man(b1-4)GlcNAc(b1-4)[Fuc(a1-6)]GlcNAc
# Summary of the method: as §1
# [10] = target: Gal(b1-4)GlcNAc(b1-3)Gal(b1-4)GlcNAc(b1-3)Gal(b1-4)GlcNAc(b1-3)Gal(b1-4)GlcNAc(b1-3)Gal(b1-4)GlcNAc(b1-2)Man(a1-3)[Gal(b1-4)GlcNAc(b1-3)Gal(b1-4)GlcNAc(b1-3)Gal(b1-4)GlcNAc(b1-3)Gal(b1-4)GlcNAc(b1-3)Gal(b1-4)GlcNAc(b1-2)Man(a1-6)]Man(b1-4)GlcNAc(b1-4)GlcNAc
# Summary of the method: as §1
# [11] = target: Gal(b1-4)GlcNAc(b1-3)Gal(b1-4)GlcNAc(b1-3)Gal(b1-4)GlcNAc(b1-3)Gal(b1-4)GlcNAc(b1-3)Gal(b1-4)GlcNAc(b1-2)Man(a1-3)[Gal(b1-4)GlcNAc(b1-3)Gal(b1-4)GlcNAc(b1-3)Gal(b1-4)GlcNAc(b1-3)Gal(b1-4)GlcNAc(b1-3)Gal(b1-4)GlcNAc(b1-2)Man(a1-6)]Man(b1-4)GlcNAc(b1-4)[Fuc(a1-6)]GlcNAc
# Summary of the method: as §1
# [12] = target: Gal(b1-4)GlcNAc(b1-3)Gal(b1-4)GlcNAc(b1-3)Gal(b1-4)GlcNAc(b1-3)Gal(b1-4)GlcNAc(b1-3)Gal(b1-4)GlcNAc(b1-2)[Gal(b1-4)GlcNAc(b1-3)Gal(b1-4)GlcNAc(b1-3)Gal(b1-4)GlcNAc(b1-3)Gal(b1-4)GlcNAc(b1-3)Gal(b1-4)GlcNAc(b1-6)]Man(a1-6)[Gal(b1-4)GlcNAc(b1-3)Gal(b1-4)GlcNAc(b1-3)Gal(b1-4)GlcNAc(b1-3)Gal(b1-4)GlcNAc(b1-3)Gal(b1-4)GlcNAc(b1-2)Man(a1-3)]Man(b1-4)GlcNAc(b1-4)[Fuc(a1-6)]GlcNAc
# Summary of the method: as §1
# [13] = target: Gal(b1-4)GlcNAc(b1-3)Gal(b1-4)GlcNAc(b1-3)Gal(b1-4)GlcNAc(b1-3)Gal(b1-4)GlcNAc(b1-3)Gal(b1-4)GlcNAc(b1-3)Gal(b1-4)GlcNAc(b1-2)Man(a1-3)[Gal(b1-4)GlcNAc(b1-3)Gal(b1-4)GlcNAc(b1-3)Gal(b1-4)GlcNAc(b1-3)Gal(b1-4)GlcNAc(b1-3)Gal(b1-4)GlcNAc(b1-3)Gal(b1-4)GlcNAc(b1-2)Man(a1-6)]Man(b1-4)GlcNAc(b1-4)GlcNAc
# Summary of the method: as §1
# [14] = target: Gal(b1-4)GlcNAc(b1-3)Gal(b1-4)GlcNAc(b1-3)GalNAc
# Summary of the method: as §1
# [15] = target: Gal(b1-4)GlcNAc(b1-3)Gal(b1-4)GlcNAc(b1-3)[Gal(b1-4)GlcNAc(b1-3)Gal(b1-4)GlcNAc(b1-6)]GalNAc
# Summary of the method: as §1
# [16] = target: Gal(b1-4)GlcNAc(b1-3)Gal(b1-4)GlcNAc(b1-6)[Gal(b1-3)]GalNAc
# Summary of the method: as §1
# [17] = target: Gal(b1-4)GlcNAc(b1-3)Gal(b1-4)[Fuc(a1-3)]GlcNAc(b1-3)Gal(b1-4)[Fuc(a1-3)]GlcNAc
# Summary of the method: as §1
# [18] = target: Gal(b1-4)GlcNAc(b1-3)GalNAc
# Summary of the method: as §1
# [19] = target: Gal(b1-4)GlcNAc(b1-3)[Fuc(a1-3)GlcNAc(b1-6)]Gal(b1-4)Glc
# Summary of the method: as §1
# [20] = target: Gal(b1-4)GlcNAc(b1-3)[Gal(b1-4)GlcNAc(b1-6)]Gal(b1-4)GlcNAc
# Summary of the method: as §1
# [21] = target: Gal(b1-4)GlcNAc(b1-3)[GlcNAc(b1-6)]Gal(b1-4)GlcNAc
# Summary of the method: as §1
# [22] = target: Gal(b1-4)GlcNAc(b1-6)Gal(b1-4)GlcNAc
# Summary of the method: as §1
# [23] = target: Gal(b1-4)GlcNAc(b1-6)GalNAc
# Summary of the method: as §1
# [24] = target: Gal(b1-4)GlcNAc(b1-6)[Gal(b1-3)]GalNAc
# Summary of the method: as §1
# [25] = target: Gal(b1-4)GlcNAc(b1-6)[Gal(b1-4)GlcNAc(b1-3)]GalNAc
# Summary of the method: as §1
# [26] = target: Gal(b1-4)GlcNAc6P
# Summary of the method: as §1
# [27] = target: Gal(b1-6)Gal
# Summary of the method: as §1
# [28] = target: Gal3S(b1-3)GalNAc
# Summary of the method: as §1
# [29] = target: Gal3S(b1-3)GlcNAc
# Summary of the method: as §1
# [30] = target: Gal3S(b1-3)[Fuc(a1-4)]GlcNAc
# Summary of the method: as §1
# [31] = target: Gal3S(b1-4)Glc
# Summary of the method: as §1
# [32] = target: Gal3S(b1-4)Glc6S
# Summary of the method: as §1
# [33] = target: Gal3S(b1-4)GlcNAc
# Summary of the method: as §1
# [34] = target: Gal3S(b1-4)[Fuc(a1-3)]Glc6S
# Summary of the method: as §1
# [35] = target: Gal3S(b1-4)[Fuc(a1-3)]GlcNAc
# Summary of the method: as §1
# [36] = target: Gal3S(b1-4)[Fuc(a1-3)]GlcNAc6S
# Summary of the method: as §1
# [37] = target: Gal3S4S(b1-4)GlcNAc
# Summary of the method: as §1
binder,measurement,setting,value
B1,glycan array binding signal (z-score),[1],0.188
same,glycan array binding signal (z-score),[2],-0.048
same,glycan array binding signal (z-score),[3],-0.557
same,glycan array binding signal (z-score),[4],-0.025
same,glycan array binding signal (z-score),[5],-0.214
same,glycan array binding signal (z-score),[6],-0.404
same,glycan array binding signal (z-score),[7],-0.218
same,glycan array binding signal (z-score),[8],-0.227
same,glycan array binding signal (z-score),[9],-0.147
same,glycan array binding signal (z-score),[10],-0.287
same,glycan array binding signal (z-score),[11],-0.081
same,glycan array binding signal (z-score),[12],0.47
same,glycan array binding signal (z-score),[13],0.333
same,glycan array binding signal (z-score),[14],0.433
same,glycan array binding signal (z-score),[15],0.129
same,glycan array binding signal (z-score),[16],0.509
same,glycan array binding signal (z-score),[17],-0.331
same,glycan array binding signal (z-score),[18],-0.354
same,glycan array binding signal (z-score),[19],-0.732
same,glycan array binding signal (z-score),[20],-0.539
same,glycan array binding signal (z-score),[21],-0.974
same,glycan array binding signal (z-score),[22],0.404
same,glycan array binding signal (z-score),[23],0.775
same,glycan array binding signal (z-score),[24],-0.482
same,glycan array binding signal (z-score),[25],0.204
same,glycan array binding signal (z-score),[26],0.064
same,glycan array binding signal (z-score),[27],-0.019
same,glycan array binding signal (z-score),[28],-0.01
same,glycan array binding signal (z-score),[29],-0.401
same,glycan array binding signal (z-score),[30],-0.303
same,glycan array binding signal (z-score),[31],-0.21
same,glycan array binding signal (z-score),[32],-0.363
same,glycan array binding signal (z-score),[33],-0.061
same,glycan array binding signal (z-score),[34],1.36
same,glycan array binding signal (z-score),[35],0.876
same,glycan array binding signal (z-score),[36],2.08
same,glycan array binding signal (z-score),[37],0.91

# Two successive records from above, for reference:
binder,measurement,setting,value
B1,glycan array binding signal (z-score),[14],0.433
same,glycan array binding signal (z-score),[15],0.129
